From patent US7943638B2, “Carboxamide compound and use of the same” (Sumitomo Chemical Company, Limited, priority 2005, dated 2011)
Some of these results come from one statement about several compounds together.

Tested on: cucumber grey mold (Botrytis cinerea)
Experiment: Cucumber grey mold controlling effect test (preventive effect)
Type: in vivo
Settings: 500 ppm flowable preparation, foliage spray on cucumber (Sagamihanpaku), 12° C. under high humidity for 5 days after inoculation

Cc1c(F)c(O)c(C(=O)Nc2ccc([N+](=O)[O-])cn2)c(=O)n1C [present compound 11, 1,6-dimethyl-5-fluoro-4-hydroxy-2-oxo-N-(5-nitro-2-pyridyl)-1,2-dihydropyridine-3-carboxamide]
area of lesion in a treated plant relative to area of a lesion in a non-treated plant: ≤ 10%

Cc1cc(O)c(C(=O)Nc2ccccn2)c(=O)n1C [present compound 3, N-(2-pyridyl)-1,6-dimethyl-4-hydroxy-2-oxo-1,2-dihydropyridine-3-carboxamide]
area of lesion in a treated plant relative to area of a lesion in a non-treated plant: ≤ 10%

Cc1ccc(NC(=O)c2c(O)cc(C)n(C)c2=O)nc1 [present compound 1, N-(5-methyl-2-pyridyl)-1,6-dimethyl-4-hydroxy-2-oxo-1,2-dihydropyridine-3-carboxamide]
area of lesion in a treated plant relative to area of a lesion in a non-treated plant: ≤ 10%

Cc1cc(O)c(C(=O)Nc2ccc(Cl)nc2)c(=O)n1C [present compound 2, N-(6-chloro-3-pyridyl)-1,6-dimethyl-4-hydroxy-2-oxo-1,2-dihydropyridine-3-carboxamide]
area of lesion in a treated plant relative to area of a lesion in a non-treated plant: ≤ 10%

Cc1c(F)c(O)c(C(=O)Nc2ccc(C#N)nc2)c(=O)n1C [present compound 12, 1,6-dimethyl-5-fluoro-4-hydroxy-2-oxo-N-(6-cyano-3-pyridyl)-1,2-dihydropyridine-3-carboxamide]
area of lesion in a treated plant relative to area of a lesion in a non-treated plant: ≤ 10%

Cc1ccc(NC(=O)c2c(O)c(F)c(C)n(C)c2=O)nc1 [present compound 9, N-(5-methyl-2-pyridyl)-5-fluoro-1,6-dimethyl-4-hydroxy-2-oxo-1,2-dihydropyridine-3-carboxamide]
area of lesion in a treated plant relative to area of a lesion in a non-treated plant: ≤ 10%
